According to PubChem BioAssay AID504648 (National Center for Advancing Translational Sciences (NCATS), 2011):
About 610 (0.16%) of roughly 390,000 compounds were called active. This list was built around the results that the source calls inconclusive (neither active nor inactive); the mix of calls is not that of the screen. Calls come from the whole dose curve; as a rule, active = well fitted inhibition curve with a large enough effect; inconclusive = small, poorly fitted or top-dose-only effect, or effect the other way, or another doubt; inactive = no such curve, though single readings can be large or run the other way. A potency beside an inconclusive call is a rough fit, not a confirmed value.

Test: Nrf2 qHTS screen for inhibitors: counterscreen for cytotoxicity
Settings: A549 ARE-Fluc cells, CellTiter-Fluor viability, 18-24 h; activity change, negative = cytotoxicity: at 46 µM (top of the series)
Method in brief: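 Cytotoxicity counterscreen: CellTiter-Fluor fluorescence was measured in A549 ARE_Fluc cells after 18-24 h of compound exposure in a concentration series. The subsequent BugLite luminescent read reports ARE-luciferase activity.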
% is set by controls: 0 for no effect and ±100 for the full control effect; potency is the fitted concentration of half-maximal effect.

Structure (SMILES)	activity change, negative = cytotoxicity	Potency
COc1ccc(CCN(C)C(=O)c2cc(S(=O)(=O)N3CCCCCC3)ccc2OC)cc1OC	inactive: -5.65%	–
O=C(NC(=O)c1ccccc1F)Nc1nc(-c2cccs2)cc(C(F)(F)F)n1	–	inconclusive: 23.1 µM [falling, single point]
CCCNc1c(NS(=O)(=O)c2ccc(C3CCCCC3)cc2)c(=O)oc2ccccc12	–	inconclusive: 29.1 µM [falling, single point]
Cc1ccc(C)c(N2CCN(CCCNC(=O)c3ccc4nc(N5CCC(C)CC5)sc4c3)CC2)c1	–	inconclusive: 29.1 µM [falling, single point]
O=C(c1cccc(S(=O)(=O)N2CCN(c3ccccc3)CC2)c1)N1CCCC(C(F)(F)F)C1 (stereo not drawn)	inactive: -18.6%	–
N#C/C(=C/c1ccc(N2CCCCCC2)o1)c1ccc(Cl)cc1	–	inconclusive: 3.26 µM [falling, single point]
CC(C)CCN1CCN(Cc2cnc(N3CCCC3)s2)CC1CCO (stereo not drawn)	–	inconclusive: 16.4 µM [falling, partial curve]
O=[N+]([O-])c1ccc(N=Nc2ncc[nH]2)cc1	–	inconclusive: 5.8 µM [falling, partial curve, poor fit]
CCc1c(C)c2cc3c(c(C)c2oc1=O)OCN(CCc1ccc(OC)c(OC)c1)C3	–	inconclusive: 23.1 µM [activator, single point]
O=C(O)CC(C(=O)O)N1C(=O)/C(=C/c2ccc(-c3nc4ccccc4s3)o2)SC1=S (stereo not drawn)	–	inconclusive: 29.1 µM [falling, single point]
CC(Nc1nc(-c2ccc(F)cc2)cs1)c1nc2cc(C(F)(F)F)ccc2n1CCOCCO (stereo not drawn)	inactive: -2.59%	–
COc1ccc(-c2nc(NC(=O)Cn3cnnn3)sc2C)cc1	inactive: -1.88%	–
Cc1cc(C)c2cc(C#N)c(N3CCCN(C(=S)NCCCN(C)C)CC3)nc2c1	–	inconclusive: 2.59 µM [activator, full curve, poor fit]
NC(=O)CC(NC(=O)Cc1ccc(Br)cc1)c1ccc(NC2CC3CCC2C3)c([N+](=O)[O-])c1 (stereo not drawn)	–	inconclusive: 16.4 µM [falling, single point]
N#CC1(Nc2ccc(Br)cc2)CCCC1	inactive: -6.5%	–
CN(C)CCN(C(=O)c1ccc(S(=O)(=O)N(C)C)cc1)c1nc2cc3c(cc2s1)OCCO3	–	inconclusive: 29.1 µM [activator, single point]
CCCN1CNc2c(c(=O)[nH]c(=S)n2CCc2cc(OC)ccc2OC)C1	–	inconclusive: 18.4 µM [activator, partial curve, poor fit]
CC(C)(C)OC(=O)N1CCC(c2cc(=O)n3[nH]cc(C(=O)NC4CCCC4)c3n2)CC1	inactive: -15.4%	–
CC(=O)N1CCn2c3c(c4cc(C)ccc42)CCCC31 (stereo not drawn)	inactive: -1.86%	–
CCOC(=O)c1ccc(N2CCN(c3ccc(F)cc3)CC2)c(NC(=O)Nc2ccc(CC)cc2)c1	inactive: 10.6%	–
CC(C)Cn1c([N+](=O)[O-])nc2c1c(=O)[nH]c(=O)n2C	–	inconclusive: 3.66 µM [falling, partial curve, poor fit]
Cc1ccc(OCC(=O)N2CCC(Cc3ccccc3)CC2)c([N+](=O)[O-])n1	inactive: 1.03%	–
O=S(=O)(NCC1CCN(c2ccc(S(=O)(=O)N3CCOCC3)cc2)CC1)c1ccc(F)cc1	–	inconclusive: 29.1 µM [falling, partial curve, poor fit]

Structure (SMILES)	activity change, negative = cytotoxicity	Potency
Cc1cccc(NC(=O)c2ccoc2C)n1	inactive: 5.92%	–
N#Cc1c(C(F)(F)F)cc(-c2ccco2)nc1SCc1ccccn1	inactive: -4.21%	–
COc1ccc(C2NC(c3ccc4c(c3)OCO4)=CC(c3ccccc3O)N2)cc1OC (stereo not drawn)	inactive: -5.21%	–
c1ccc(COC(CN2CCCCCC2)CN2CCCCCC2)cc1	–	inconclusive: 18.4 µM [falling, single point]
O=c1ccc2c(-c3ccccc3S(=O)(=O)O)c3ccc(O)c(O)c3oc-2c1O	–	active: 13 µM
COc1cccc(-c2ccc3c(N)c(C(=O)c4ccc(F)cc4)sc3n2)c1	–	inconclusive: 11.6 µM [activator, partial curve, poor fit]
Cc1ccc2cccc(SCC(=O)NCC#N)c2n1	inactive: 1.96%	–
CC1CCN(S(=O)(=O)c2ccc(N/N=C(/C#N)C(N)=O)cc2)CC1	–	inconclusive: 18.4 µM [falling, partial curve, poor fit]
COC(=O)C1=C(C(=O)c2ccccc2)C(c2ccc(O)c(OC)c2)n2nnnc2N1 (stereo not drawn)	–	inconclusive: 10.3 µM [falling, partial curve, poor fit]
Cc1ccc(CSC2=Nc3ccccc3C3=NC(CCC(=O)NCc4cccs4)C(=O)N23)c(C)c1 (stereo not drawn)	–	inconclusive: 20.6 µM [falling, single point]
Brc1ccc(C2C3=C(Nc4ncnn42)c2ccccc2OC3c2ccncc2)cc1 (stereo not drawn)	–	inconclusive: 29.1 µM [falling, single point]
Cc1cc(NC(=O)CSc2nc3c(c(=O)n2-c2ccc(Br)cc2)SCC3)no1	–	inconclusive: 29.1 µM [falling, single point]
COc1ccc(C(=O)Nc2nc(C)c(C(=O)N(C)C)s2)cc1OC	–	inconclusive: 20.6 µM [activator, partial curve, poor fit]
CC(=O)c1cccc(NC(=O)CCc2nc3cccnc3n2Cc2cccs2)c1	inconclusive: -57.8% [activator]	–
O=C(Nc1cccc(-n2cccn2)c1)C1CCCN(Cc2ccc(C#CCCO)cc2)C1 (stereo not drawn)	inactive: -7.26%	–
CCc1ccccc1N1CC(c2nc3ccccc3n2CCOc2ccc(Cl)c(C)c2)CC1=O (stereo not drawn)	–	inconclusive: 20.6 µM [falling, single point]
Cc1cccc(C)c1OC1(c2ccccc2)OC(=O)c2ccccc21 (stereo not drawn)	–	inconclusive: 29.1 µM [falling, single point]
CCCC(NCC(O)COc1ccc(-c2ccccc2)cc1)c1ccccc1 (stereo not drawn)	–	inconclusive: 29.1 µM [falling, single point]
CCCOC(=O)c1ccc(Oc2c(-c3ccc(OCC)cc3O)n[nH]c2C)cc1	–	inconclusive: 18.4 µM [falling, single point]
O=C(Nc1ccccc1F)C(=Cc1sc(N2CCOCC2)nc1-c1ccccc1)C(=O)Nc1ccccc1F	inactive: -20.1%	–
Cc1cc(N2CCOCC2)ccc1/C=C1\NC(=O)N(CC(=O)Nc2ccc(F)cc2)C1=O	–	inconclusive: 20.6 µM [falling, partial curve, poor fit]
CCCCOC(=O)CSC1=C(C#N)C(c2ccccc2OCC)C(C#N)C(=O)N1 (stereo not drawn)	–	inconclusive: 18.4 µM [falling, single point]
COc1ccc2cc[nH]c2c1	inactive: 2.33%	–

Individual results from the entries so far:
`O=C(O)CC(C(=O)O)N1C(=O)/C(=C/c2ccc(-c3nc4ccccc4s3)o2)SC1=S` (stereo not drawn) – Potency: inconclusive: 29.1 µM [falling, single point]
`CC1CCN(S(=O)(=O)c2ccc(N/N=C(/C#N)C(N)=O)cc2)CC1` – Potency: inconclusive: 18.4 µM [falling, partial curve, poor fit]
`Cc1ccc(OCC(=O)N2CCC(Cc3ccccc3)CC2)c([N+](=O)[O-])n1` – activity change, negative = cytotoxicity: inactive: 1.03%

More results follow.

Structure (SMILES)	activity change, negative = cytotoxicity	Potency
COC(=O)c1cc2c(ccn2-c2ccc(F)cc2)n1C(C)C	inactive: -6.91%	–
O=C(Nc1ccc(-c2csc(Nc3cccc(C(F)(F)F)c3)n2)cc1)c1cccc(C(F)(F)F)c1	–	inconclusive: 20.6 µM [falling, partial curve, poor fit]
Cc1nnsc1C(=O)Nc1ccc(S(=O)(=O)N2CCCC(C)C2)cc1 (stereo not drawn)	inactive: 1.33%	–
COc1ccc(C(=O)N2CCN(c3ccc([N+](=O)[O-])c(NCCc4ccc(OC)c(OC)c4)c3)CC2)cc1	–	inconclusive: 9.2 µM [falling, partial curve, poor fit]
CC(C)(C)OC(=O)N1CCC(c2c(C(=O)NCc3ccccc3)cnn2-c2ccc(F)cc2)CC1	–	inconclusive: 18.4 µM [falling, partial curve, poor fit]
COc1ccc(N2CC(C(=O)Nc3cccc(S(=O)(=O)N4CCCC4)c3)CC2=O)c(OC)c1 (stereo not drawn)	inactive: -1.52%	–
CCNC(=S)NNC(=O)c1cc(-c2cccc(OC)c2)nc2ccccc12	inactive: 8.55%	–
Cc1nc([N+](=O)[O-])c(Br)n1CC(=O)c1ccccc1	–	inconclusive: 16.4 µM [falling, partial curve, poor fit]
c1ccc(C2Nc3ccccc3-c3nc4ccccc4n32)cc1 (stereo not drawn)	–	inconclusive: 29.1 µM [falling, partial curve, poor fit]
CCCNC(=O)c1cnn2c(C(F)F)cc(-c3ccccc3)nc12	–	inconclusive: 18.4 µM [falling, single point]
CNC(=S)N(CCc1c(C)[nH]c2ccc(C)cc12)Cc1cc(OC)c(OC)c(OC)c1	–	inconclusive: 29.1 µM [falling, single point]
COc1ccc(/C=C/c2cccc[n+]2C)c(O)c1	–	inconclusive: 10.3 µM [falling, partial curve]
COc1ccc(NC(=O)c2cc([N+](=O)[O-])ccc2O)cc1	–	inconclusive: 20.6 µM [falling, single point]
CS(=O)(=O)N1CCc2cc(C(=O)Nc3ccc(C(F)(F)F)cc3)ccc21	–	inconclusive: 20.6 µM [falling, partial curve, poor fit]
CCOC(=O)/C(=C/C=C1\Sc2cc(C)c(C)cc2N1CC)C(C)=O	–	inconclusive: 16.4 µM [falling, single point]
Cc1ccccc1OCCCCn1nnc2sc3c(c2c1=O)CCC(C)C3 (stereo not drawn)	inactive: 7.37%	–
O=C(Nc1nc2c(F)cccc2s1)c1ccco1	inactive: 0.956%	–
CN(C)S(=O)(=O)N1CCCC(C(=O)c2ccc(C(F)(F)F)cc2)C1 (stereo not drawn)	inactive: 16.5%	–
Cc1cc([N+](=O)[O-])cc([N+](=O)[O-])c1NCC(C)C	–	inconclusive: 7.31 µM [falling, partial curve, poor fit]
Cc1ccc2occ(CC(=O)Nc3ccc(S(=O)(=O)N4CCC(C)CC4)cc3)c2c1	inactive: -12.5%	–
Cc1cc(Cl)ccc1OCCCC(=O)N1CCN(C)CC1	–	inconclusive: 10.3 µM [activator, partial curve, poor fit]
N=c1c(C(=O)NCC2CCCO2)cc2c(=O)n3ccccc3nc2n1Cc1ccc(F)cc1 (stereo not drawn)	–	inconclusive: 8.2 µM [activator, partial curve, poor fit]
